The text below walks through data of PMC4381070.

Chains of the proteins cited; added tags and fusions are not shown. Lines headed by an entry give the natural chain unless they say otherwise; changes in a name come on top.
UniProt Q9BQ69: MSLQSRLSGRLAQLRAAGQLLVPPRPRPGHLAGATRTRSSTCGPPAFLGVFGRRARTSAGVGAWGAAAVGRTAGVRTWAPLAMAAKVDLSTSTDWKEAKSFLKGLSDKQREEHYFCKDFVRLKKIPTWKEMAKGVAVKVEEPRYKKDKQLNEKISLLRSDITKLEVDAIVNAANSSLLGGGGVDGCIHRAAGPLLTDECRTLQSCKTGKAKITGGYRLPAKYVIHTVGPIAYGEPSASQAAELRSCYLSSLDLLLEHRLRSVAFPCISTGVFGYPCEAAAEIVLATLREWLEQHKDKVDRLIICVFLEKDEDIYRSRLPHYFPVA
UniProt Q9Y6K9: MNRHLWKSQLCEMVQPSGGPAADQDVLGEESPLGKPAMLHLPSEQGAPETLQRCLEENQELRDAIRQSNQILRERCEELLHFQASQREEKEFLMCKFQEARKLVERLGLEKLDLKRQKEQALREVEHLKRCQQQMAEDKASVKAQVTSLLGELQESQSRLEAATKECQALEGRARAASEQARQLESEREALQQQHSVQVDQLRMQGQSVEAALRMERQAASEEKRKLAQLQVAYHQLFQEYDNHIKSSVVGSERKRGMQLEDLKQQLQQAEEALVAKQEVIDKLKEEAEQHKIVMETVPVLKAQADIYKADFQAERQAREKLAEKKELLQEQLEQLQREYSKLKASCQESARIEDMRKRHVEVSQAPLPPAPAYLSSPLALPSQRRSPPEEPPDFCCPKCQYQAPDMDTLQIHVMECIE
UniProt P09874: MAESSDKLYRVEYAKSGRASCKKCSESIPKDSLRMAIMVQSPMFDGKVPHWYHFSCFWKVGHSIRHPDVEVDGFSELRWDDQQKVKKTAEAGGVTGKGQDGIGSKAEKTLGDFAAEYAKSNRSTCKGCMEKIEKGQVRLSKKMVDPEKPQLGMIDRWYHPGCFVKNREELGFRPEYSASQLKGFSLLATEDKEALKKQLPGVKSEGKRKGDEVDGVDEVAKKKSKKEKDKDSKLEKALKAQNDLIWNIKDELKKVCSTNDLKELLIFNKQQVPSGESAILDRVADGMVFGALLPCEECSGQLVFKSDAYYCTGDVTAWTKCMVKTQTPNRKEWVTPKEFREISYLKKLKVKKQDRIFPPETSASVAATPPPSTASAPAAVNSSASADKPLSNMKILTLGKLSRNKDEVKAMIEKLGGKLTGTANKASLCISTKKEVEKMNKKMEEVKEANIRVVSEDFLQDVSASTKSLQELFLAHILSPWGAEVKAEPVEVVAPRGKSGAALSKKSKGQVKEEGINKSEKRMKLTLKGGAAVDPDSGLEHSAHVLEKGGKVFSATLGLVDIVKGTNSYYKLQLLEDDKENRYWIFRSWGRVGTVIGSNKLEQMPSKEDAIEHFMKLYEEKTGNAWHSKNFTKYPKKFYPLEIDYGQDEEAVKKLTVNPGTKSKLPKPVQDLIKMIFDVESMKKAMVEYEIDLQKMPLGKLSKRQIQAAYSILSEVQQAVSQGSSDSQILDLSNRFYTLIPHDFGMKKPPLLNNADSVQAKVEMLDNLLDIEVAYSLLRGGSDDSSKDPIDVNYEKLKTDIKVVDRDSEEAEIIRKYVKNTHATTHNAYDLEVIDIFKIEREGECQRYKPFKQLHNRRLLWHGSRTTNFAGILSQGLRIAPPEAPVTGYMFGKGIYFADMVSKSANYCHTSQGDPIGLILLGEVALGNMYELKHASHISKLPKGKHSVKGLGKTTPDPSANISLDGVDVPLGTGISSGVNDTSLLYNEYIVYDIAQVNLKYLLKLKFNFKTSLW

No constants are given. Whether binding was seen depends on the method and setting. In cells and extracts the contact can be indirect. Binding calls can cover weak binding; strength is not graded here.

For this assay, the target named is FLAG-LRP16 (G270A-V271A-F271A, GVF-AAA) (UniProt Q9BQ69). The experiment in a line: co-IP; HeLa cells transfected with a FLAG-tagged construct (the target), treated with VP16 for 30 min; whole-cell extracts, IP with anti-FLAG antibody, endogenous partner detected by immunoblot. For orientation: A western blot detects proteins with antibodies after separation by electrophoresis.

“IKKγ (endogenous) (from UniProt Q9Y6K9 1-419)”: the binding result is reported as “binds”.
Consider “PARP1 (endogenous) (from UniProt P09874 1-1014)”, for which the binding result is “binds”.
